{"source": "PubChem BioAssay AID743458 (Peter MacCallum Cancer Centre, 2014)", "assay": "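Identify genes whose loss lifts vorinostat resistance in colon cancer cells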 (follow-up of hits)", "cells": "human HCT116-VR colon cancer cells made resistant to vorinostat", "reagents": "single siRNA or pool against human genes, 25 nM per single siRNA", "time to read-out": "about 72 h after transfection, including 24 h of drug", "treatment": "vorinostat, 2.5 µM final, for 24 h", "detection": "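Live-cell fluorescent viability and luminescent caspase 3/7 activity after vorinostat treatment, background subtracted, mean of duplicate plates, as fold change over mock-transfected wells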", "reading the numbers": "viability relative to mock: higher = more living cells than mock; caspase activity relative to mock: higher = more apoptosis than mock", "hit rule": "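An siRNA counts as active if classed as reduced viability or as caspase activation, otherwise inactive; a hit class needed wells that remained healthy in the absence of drug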", "note": "The whole screen tested about 1,800 reagents; this is a part drawn at random. In the full data, 732 (41%) got an active call. 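Calls are per siRNA reagent; a gene was deemed confirmed only if most of its four siRNAs scored.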 A number with no mark means an inactive call. Reagents against one gene are numbered here. Reagent sequences are not shown."}
{"target gene": "ZNF646 (GeneID 9726)", "reagent": 1, "viability relative to mock": 0.66, "caspase activity relative to mock": 3.19, "viability hit class": "no change", "caspase hit class": "no change"}
{"target gene": "ZNF646 (GeneID 9726)", "reagent": 2, "viability relative to mock": 1.01, "caspase activity relative to mock": 1.31, "viability hit class": "no change", "caspase hit class": "no change"}
{"target gene": "ZNF646 (GeneID 9726)", "reagent": 3, "viability relative to mock": 0.94, "caspase activity relative to mock": 1.13, "viability hit class": "no change", "caspase hit class": "no change"}
{"target gene": "ZNF646 (GeneID 9726)", "reagent": 4, "viability relative to mock": 0.98, "caspase activity relative to mock": 1.18, "viability hit class": "no change", "caspase hit class": "no change"}
{"target gene": "PALM (GeneID 5064)", "reagent": 1, "viability relative to mock": 0.94, "caspase activity relative to mock": 1.22, "viability hit class": "no change", "caspase hit class": "no change"}
{"target gene": "PALM (GeneID 5064)", "reagent": 2, "viability relative to mock": 0.88, "caspase activity relative to mock": 1.12, "viability hit class": "no change", "caspase hit class": "no change"}
{"target gene": "PALM (GeneID 5064)", "reagent": 3, "viability relative to mock": "0.68 (active)", "caspase activity relative to mock": 3.66, "viability hit class": "no change", "caspase hit class": "caspase activation"}
{"target gene": "PALM (GeneID 5064)", "reagent": 4, "viability relative to mock": "0.39 (active)", "caspase activity relative to mock": 4.56, "viability hit class": "reduced viability", "caspase hit class": "caspase activation"}

The list goes on, starting with the last 2 of the part before.
{"target gene": "PALM (GeneID 5064)", "reagent": 3, "viability relative to mock": "0.68 (active)", "caspase activity relative to mock": 3.66, "viability hit class": "no change", "caspase hit class": "caspase activation"}
{"target gene": "PALM (GeneID 5064)", "reagent": 4, "viability relative to mock": "0.39 (active)", "caspase activity relative to mock": 4.56, "viability hit class": "reduced viability", "caspase hit class": "caspase activation"}
{"target gene": "MTF2 (GeneID 22823)", "reagent": 1, "viability relative to mock": 1.09, "caspase activity relative to mock": 2.36, "viability hit class": "no change", "caspase hit class": "no change"}
{"target gene": "MTF2 (GeneID 22823)", "reagent": 2, "viability relative to mock": 0.96, "caspase activity relative to mock": 1.19, "viability hit class": "no change", "caspase hit class": "no change"}
{"target gene": "MTF2 (GeneID 22823)", "reagent": 3, "viability relative to mock": 0.88, "caspase activity relative to mock": 1.12, "viability hit class": "no change", "caspase hit class": "no change"}
{"target gene": "MTF2 (GeneID 22823)", "reagent": 4, "viability relative to mock": 0.71, "caspase activity relative to mock": 2.34, "viability hit class": "no change", "caspase hit class": "no change"}
{"target gene": "ING2 (GeneID 3622)", "reagent": 1, "viability relative to mock": 0.9, "caspase activity relative to mock": 0.92, "viability hit class": "no change", "caspase hit class": "no change"}
{"target gene": "ING2 (GeneID 3622)", "reagent": 2, "viability relative to mock": 1, "caspase activity relative to mock": 1.31, "viability hit class": "no change", "caspase hit class": "no change"}
{"target gene": "ING2 (GeneID 3622)", "reagent": 3, "viability relative to mock": 1.08, "caspase activity relative to mock": 1.04, "viability hit class": "no change", "caspase hit class": "no change"}
{"target gene": "ING2 (GeneID 3622)", "reagent": 4, "viability relative to mock": "0.42 (active)", "caspase activity relative to mock": 4.45, "viability hit class": "reduced viability", "caspase hit class": "caspase activation"}
{"target gene": "NFYA (GeneID 4800)", "reagent": 1, "viability relative to mock": "0.55 (active)", "caspase activity relative to mock": 2.24, "viability hit class": "reduced viability", "caspase hit class": "no change"}
{"target gene": "NFYA (GeneID 4800)", "reagent": 2, "viability relative to mock": 0.92, "caspase activity relative to mock": 0.84, "viability hit class": "no change", "caspase hit class": "no change"}
{"target gene": "NFYA (GeneID 4800)", "reagent": 3, "viability relative to mock": "0.6 (active)", "caspase activity relative to mock": 4.1, "viability hit class": "no change", "caspase hit class": "caspase activation"}
{"target gene": "NFYA (GeneID 4800)", "reagent": 4, "viability relative to mock": "0.5 (active)", "caspase activity relative to mock": 3.95, "viability hit class": "reduced viability", "caspase hit class": "caspase activation"}
{"target gene": "FBP1 (GeneID 2203)", "reagent": 1, "viability relative to mock": 0.96, "caspase activity relative to mock": 1.08, "viability hit class": "no change", "caspase hit class": "no change"}
{"target gene": "FBP1 (GeneID 2203)", "reagent": 2, "viability relative to mock": 1.04, "caspase activity relative to mock": 2, "viability hit class": "no change", "caspase hit class": "no change"}
{"target gene": "FBP1 (GeneID 2203)", "reagent": 3, "viability relative to mock": 0.67, "caspase activity relative to mock": 2.5, "viability hit class": "no change", "caspase hit class": "no change"}
{"target gene": "FBP1 (GeneID 2203)", "reagent": 4, "viability relative to mock": 1.02, "caspase activity relative to mock": 1.14, "viability hit class": "no change", "caspase hit class": "no change"}
